According to publication PMC9364023, “In vitro single molecule and bulk phase studies reveal the AP-1 transcription factor cFos binds to DNA without its partner cJun” (The Journal of Biological Chemistry, 2022):
No constants are given. Whether binding was seen depends on the method and setting. Some entries that bind do so weakly or less than the wild type.

The chains behind the UniProt entries cited, without tags or fusion partners. Residues count along the entry.
UniProt P01100, residues 137-200: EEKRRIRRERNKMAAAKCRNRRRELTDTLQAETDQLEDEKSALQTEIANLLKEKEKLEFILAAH
UniProt P05412, residues 252-315: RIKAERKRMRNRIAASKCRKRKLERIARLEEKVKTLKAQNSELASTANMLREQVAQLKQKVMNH

Assays:
[1] = target: cFos bZIP fused to a fluorescent protein (cFos-mNeonGreen and cFos-mCherry) (human) (UniProt P01100); assay: FRET or BRET; mNeonGreen and mCherry fusions at 400 nM each in a 96-well plate; HSABC buffer with 2.5 mM DTT; with and without 500 nM TRE DNA duplex; room temperature, 10 min; excitation scan 450-650 nm, emission 700 nm; difference against the sum of the individual spectra; both purified
[2] = target: cJun bZIP fused to a fluorescent protein (cJun-mNeonGreen and cJun-mCherry) (human) (UniProt P05412); assay: as above

## cFos bZIP fused to a fluorescent protein (cFos-mNeonGreen and cFos-mCherry) (from UniProt P01100 137-200) (domain or fragment)
[1]
  binding: binds

## cJun bZIP fused to a fluorescent protein (cJun-mNeonGreen and cJun-mCherry) (from UniProt P05412 252-315) (domain or fragment)
[2]
  binding: binds

B1: UvrA-mNG (protein, UniProt P0A698 1-940)
chain: MDKIEVRGARTHNLKNINLVIPRDKLIVVTGLSGSGKSSLAFDTLYAEGQRRYVESLSAYARQFLSLMEKPDVDHIEGLSPAISIEQKSTSHNPRSTVGTITEIHDYLRLLFARVGEPRCPDHDVPLAAQTVSQMVDNVLSQPEGKRLMLLAPIIKERKGEHTKTLENLASQGYIRARIDGEVCDLSDPPKLELQKKHTIEVVVDRFKVRDDLTQRLAESFETALELSGGTAVVADMDDPKAEELLFSANFACPICGYSMRELEPRLFSFNNPAGACPTCDGLGVQQYFDPDRVIQNPELSLAGGAIRGWDRRNFYYFQMLKSLADHYKFDVEAPWGSLSANVHKVVLYGSGKENIEFKYMNDRGDTSIRRHPFEGVLHNMERRYKETESSAVREELAKFISNRPCASCEGTRLRREARHVYVENTPLPAISDMSIGHAMEFFNNLKLAGQRAKIAEKILKEIGDRLKFLVNVGLNYLTLSRSAETLSGGEAQRIRLASQIGAGLVGVMYVLDEPSIGLHQRDNERLLGTLIHLRDLGNTVIVVEHDEDAIRAADHVIDIGPGAGVHGGEVVAEGPLEAIMAVPESLTGQYMSGKRKIEVPKKRVPANPEKVLKLTGARGNNLKDVTLTLPVGLFTCITGVSGSGKSTLINDTLFPIAQRQLNGATIAEPAPYRDIQGLEHFDKVIDIDQSPIGRTPRSNPATYTGVFTPVRELFAGVPESRARGYTPGRFSFNVRGGRCEACQGDGVIKVEMHFLPDIYVPCDQCKGKRYNRETLEIKYKGKTIHEVLDMTIEEAREFFDAVPALARKLQTLMDVGLTYIRLGQSATTLSGGEAQRVKLARELSKRGTGQTLYILDEPTTGLHFADIQQLLDVLHKLRDQGNTIVVIEHNLDVIKTADWIVDLGPEGGSGGGEILVSGTPETVAECEASHTARFLKPML
[1]
  binding: no binding
